Among the data in patent US20260258125A1 are binding values, retold here.

The target of this assay is cyno CEACAM5 protein (cynomolgus monkey). The assay is described as follows: ELISA, antigen coated on plate. For orientation: An ELISA detects its analyte on a solid surface through an enzyme-linked reagent.

Results are given in words; binding and its absence hold for the method and conditions named.

B1: PR303563 (Tinurilimab) (antibody, human IgG2, kappa, V domains shown)
VH: QVTLRESGPALVKPTQTLTLTCTFSGFSLSTYGIGVGWIRQPPGKALEWLAHIWWNDNKYYSTSLKTRLTISKDTSKNQVVLTMTNMDPVDTATYYCARISLPYFDYWGQGTTLTVSS
VL: DIQLTQSPSFLSASVGDRVTITCKASQNVGTAVAWYQQKPGKAPKLLIYSASNRYTGVPSRFSGSGSGTEFTLTISSLQPEDFATYYCQQYSSYPLTFGGGTKVEIKR
On to B1, for which the binding entry is “no binding”.
